The list shows a part of the results.
Columns and labels:
Test in all cases: log2 fold change, soluble protein after heating vs DMSO (PISA); higher = thermal stabilisation; K562 cells, 10 uM, 30 min; active = over 0.2 and 3.5 SD of the protein, either way, in both replicates (recomputed)
[1] = compound: CC1=C(C=C(C=C1)NC(=O)C2=CC(=CC=C2)C(C)(C)C#N)NC3=CC4=C(C=C3)N=CN(C4=O)C
In short: (§1)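 Thermal stability values are relative to control samples and come from duplicates. They are expressed as log2 fold changes. For measurement, K562 cells (2×10^6 cells/mL) received 10 μM compound for 30 min, and aliquots were heated for 3 min over 48°C-58°C, pooled, and extracted at 4°C in PBS with 0.5% NP-40. Soluble protein, the supernatant after 21,000xg for 90 min, was quantified by TMTpro 16plex LC-MS/MS with equalised channel sums.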

Protein sequences, listed by entry. Tags and fused reporters are not part of them. Lines headed by an entry give the natural chain unless they say otherwise; changes in a name come on top.
UniProt Q495W5: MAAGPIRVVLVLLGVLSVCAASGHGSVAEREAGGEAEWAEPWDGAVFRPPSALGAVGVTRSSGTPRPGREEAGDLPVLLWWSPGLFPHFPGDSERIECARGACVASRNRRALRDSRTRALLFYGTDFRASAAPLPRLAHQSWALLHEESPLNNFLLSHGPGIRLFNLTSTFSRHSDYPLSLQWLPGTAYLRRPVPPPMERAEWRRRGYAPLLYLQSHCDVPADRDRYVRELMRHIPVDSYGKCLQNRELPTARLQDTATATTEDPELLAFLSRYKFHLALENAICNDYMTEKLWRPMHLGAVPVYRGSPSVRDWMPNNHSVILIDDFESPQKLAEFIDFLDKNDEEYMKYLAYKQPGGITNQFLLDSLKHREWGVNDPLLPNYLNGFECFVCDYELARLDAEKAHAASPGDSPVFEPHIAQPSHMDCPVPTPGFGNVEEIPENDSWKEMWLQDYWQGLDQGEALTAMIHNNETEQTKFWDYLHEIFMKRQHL
UniProt Q8TB36: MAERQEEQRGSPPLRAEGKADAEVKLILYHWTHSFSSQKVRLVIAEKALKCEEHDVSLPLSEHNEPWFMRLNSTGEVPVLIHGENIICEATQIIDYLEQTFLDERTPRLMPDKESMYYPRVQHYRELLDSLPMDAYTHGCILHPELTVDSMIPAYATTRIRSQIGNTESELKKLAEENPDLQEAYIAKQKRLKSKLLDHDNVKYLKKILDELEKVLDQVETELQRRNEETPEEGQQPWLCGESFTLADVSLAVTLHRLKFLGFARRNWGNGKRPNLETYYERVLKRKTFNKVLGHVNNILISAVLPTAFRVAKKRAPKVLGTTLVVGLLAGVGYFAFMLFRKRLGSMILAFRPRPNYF
UniProt Q9BWH2: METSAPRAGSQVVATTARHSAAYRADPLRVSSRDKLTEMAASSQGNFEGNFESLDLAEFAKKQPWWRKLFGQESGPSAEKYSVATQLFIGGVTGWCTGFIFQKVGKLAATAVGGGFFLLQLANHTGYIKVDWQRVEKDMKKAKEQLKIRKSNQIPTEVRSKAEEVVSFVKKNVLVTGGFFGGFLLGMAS
UniProt O75223: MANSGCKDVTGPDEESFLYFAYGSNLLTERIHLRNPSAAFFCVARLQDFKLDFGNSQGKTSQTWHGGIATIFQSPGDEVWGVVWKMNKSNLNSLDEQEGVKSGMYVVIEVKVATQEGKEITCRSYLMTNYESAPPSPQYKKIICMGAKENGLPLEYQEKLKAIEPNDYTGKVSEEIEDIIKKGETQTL
UniProt Q9NXN4: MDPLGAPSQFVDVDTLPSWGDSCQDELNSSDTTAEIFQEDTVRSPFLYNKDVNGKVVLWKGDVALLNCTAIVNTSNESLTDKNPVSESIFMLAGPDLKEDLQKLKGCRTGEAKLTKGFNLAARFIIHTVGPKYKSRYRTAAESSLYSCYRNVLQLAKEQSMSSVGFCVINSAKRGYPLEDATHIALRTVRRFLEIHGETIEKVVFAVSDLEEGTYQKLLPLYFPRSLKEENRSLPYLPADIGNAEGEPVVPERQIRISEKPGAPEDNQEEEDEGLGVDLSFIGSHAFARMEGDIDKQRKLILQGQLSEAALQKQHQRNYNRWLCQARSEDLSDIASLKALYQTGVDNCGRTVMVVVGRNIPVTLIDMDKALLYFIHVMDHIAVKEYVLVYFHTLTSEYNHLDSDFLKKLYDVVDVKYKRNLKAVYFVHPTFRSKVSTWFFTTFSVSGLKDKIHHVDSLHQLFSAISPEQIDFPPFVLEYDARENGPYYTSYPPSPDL
UniProt Q5TBA9: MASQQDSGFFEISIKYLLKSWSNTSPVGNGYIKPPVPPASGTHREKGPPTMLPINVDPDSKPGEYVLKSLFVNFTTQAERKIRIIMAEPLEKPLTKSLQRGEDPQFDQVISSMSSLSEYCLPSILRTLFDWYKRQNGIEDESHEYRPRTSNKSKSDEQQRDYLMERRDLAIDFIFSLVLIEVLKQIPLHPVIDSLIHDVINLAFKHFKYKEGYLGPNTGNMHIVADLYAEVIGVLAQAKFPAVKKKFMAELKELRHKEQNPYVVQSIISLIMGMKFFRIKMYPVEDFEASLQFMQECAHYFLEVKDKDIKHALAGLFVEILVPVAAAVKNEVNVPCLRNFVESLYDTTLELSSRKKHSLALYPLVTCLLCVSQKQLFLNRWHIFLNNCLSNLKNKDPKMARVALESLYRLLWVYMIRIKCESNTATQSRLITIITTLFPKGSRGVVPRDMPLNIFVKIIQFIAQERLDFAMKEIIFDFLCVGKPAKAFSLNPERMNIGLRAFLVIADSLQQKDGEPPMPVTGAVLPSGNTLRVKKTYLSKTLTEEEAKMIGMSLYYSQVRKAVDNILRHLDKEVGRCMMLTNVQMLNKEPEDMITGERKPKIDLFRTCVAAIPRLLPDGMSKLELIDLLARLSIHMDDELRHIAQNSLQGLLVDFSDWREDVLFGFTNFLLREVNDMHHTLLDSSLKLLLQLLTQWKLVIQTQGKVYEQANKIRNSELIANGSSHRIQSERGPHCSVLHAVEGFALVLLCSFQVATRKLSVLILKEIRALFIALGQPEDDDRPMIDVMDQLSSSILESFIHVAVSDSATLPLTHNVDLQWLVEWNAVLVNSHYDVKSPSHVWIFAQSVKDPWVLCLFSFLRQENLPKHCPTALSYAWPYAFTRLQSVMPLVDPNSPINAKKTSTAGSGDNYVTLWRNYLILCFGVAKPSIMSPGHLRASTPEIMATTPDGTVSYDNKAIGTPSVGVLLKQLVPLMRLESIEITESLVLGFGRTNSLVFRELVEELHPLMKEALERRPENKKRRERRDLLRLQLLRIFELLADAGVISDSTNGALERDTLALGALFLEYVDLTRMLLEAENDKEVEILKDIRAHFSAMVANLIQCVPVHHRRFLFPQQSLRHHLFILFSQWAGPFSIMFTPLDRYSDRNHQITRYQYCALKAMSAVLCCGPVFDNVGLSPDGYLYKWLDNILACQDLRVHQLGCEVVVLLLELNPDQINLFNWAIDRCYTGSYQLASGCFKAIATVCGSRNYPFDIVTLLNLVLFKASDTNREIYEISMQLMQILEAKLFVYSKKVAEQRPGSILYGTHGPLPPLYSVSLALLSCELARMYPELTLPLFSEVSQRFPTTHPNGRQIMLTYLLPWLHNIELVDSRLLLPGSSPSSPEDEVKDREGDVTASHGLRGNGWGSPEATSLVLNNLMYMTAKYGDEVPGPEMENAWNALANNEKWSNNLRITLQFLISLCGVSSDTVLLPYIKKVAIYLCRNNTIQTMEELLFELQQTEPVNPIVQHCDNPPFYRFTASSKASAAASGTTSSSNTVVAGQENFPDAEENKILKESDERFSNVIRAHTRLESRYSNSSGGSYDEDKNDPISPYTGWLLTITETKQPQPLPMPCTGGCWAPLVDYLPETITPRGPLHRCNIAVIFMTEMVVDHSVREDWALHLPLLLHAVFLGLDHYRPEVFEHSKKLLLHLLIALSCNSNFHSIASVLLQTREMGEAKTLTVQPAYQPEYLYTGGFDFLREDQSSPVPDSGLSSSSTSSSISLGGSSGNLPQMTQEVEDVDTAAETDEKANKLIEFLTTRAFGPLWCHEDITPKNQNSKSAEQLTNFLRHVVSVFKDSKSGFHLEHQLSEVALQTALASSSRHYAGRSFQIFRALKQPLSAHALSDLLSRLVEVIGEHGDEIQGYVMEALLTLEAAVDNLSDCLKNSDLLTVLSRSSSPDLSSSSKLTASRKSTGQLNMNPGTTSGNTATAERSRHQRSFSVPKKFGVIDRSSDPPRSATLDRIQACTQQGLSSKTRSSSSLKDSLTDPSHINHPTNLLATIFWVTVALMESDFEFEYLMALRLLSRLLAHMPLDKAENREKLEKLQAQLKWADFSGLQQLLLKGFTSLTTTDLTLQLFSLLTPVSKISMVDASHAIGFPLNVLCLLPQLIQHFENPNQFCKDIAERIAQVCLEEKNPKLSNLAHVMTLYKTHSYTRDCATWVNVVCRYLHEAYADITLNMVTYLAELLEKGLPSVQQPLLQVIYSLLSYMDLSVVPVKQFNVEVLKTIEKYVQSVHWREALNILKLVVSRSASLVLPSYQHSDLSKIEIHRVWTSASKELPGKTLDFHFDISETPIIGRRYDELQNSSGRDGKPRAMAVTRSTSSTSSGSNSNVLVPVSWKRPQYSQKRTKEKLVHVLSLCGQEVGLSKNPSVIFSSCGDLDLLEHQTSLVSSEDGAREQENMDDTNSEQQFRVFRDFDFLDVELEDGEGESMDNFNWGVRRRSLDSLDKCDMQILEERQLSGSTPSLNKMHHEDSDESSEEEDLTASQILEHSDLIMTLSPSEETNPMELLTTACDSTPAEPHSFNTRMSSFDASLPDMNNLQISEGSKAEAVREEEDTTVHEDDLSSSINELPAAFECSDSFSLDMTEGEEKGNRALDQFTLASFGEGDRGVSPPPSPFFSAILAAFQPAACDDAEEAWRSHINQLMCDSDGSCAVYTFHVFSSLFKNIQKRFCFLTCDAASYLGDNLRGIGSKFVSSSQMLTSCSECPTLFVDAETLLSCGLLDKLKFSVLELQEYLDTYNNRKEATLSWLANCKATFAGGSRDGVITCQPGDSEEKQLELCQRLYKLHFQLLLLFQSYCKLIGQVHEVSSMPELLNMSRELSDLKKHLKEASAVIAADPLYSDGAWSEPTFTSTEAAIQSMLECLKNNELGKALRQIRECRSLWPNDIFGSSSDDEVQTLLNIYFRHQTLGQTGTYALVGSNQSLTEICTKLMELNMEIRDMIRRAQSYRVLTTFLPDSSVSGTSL
UniProt Q8NCL4: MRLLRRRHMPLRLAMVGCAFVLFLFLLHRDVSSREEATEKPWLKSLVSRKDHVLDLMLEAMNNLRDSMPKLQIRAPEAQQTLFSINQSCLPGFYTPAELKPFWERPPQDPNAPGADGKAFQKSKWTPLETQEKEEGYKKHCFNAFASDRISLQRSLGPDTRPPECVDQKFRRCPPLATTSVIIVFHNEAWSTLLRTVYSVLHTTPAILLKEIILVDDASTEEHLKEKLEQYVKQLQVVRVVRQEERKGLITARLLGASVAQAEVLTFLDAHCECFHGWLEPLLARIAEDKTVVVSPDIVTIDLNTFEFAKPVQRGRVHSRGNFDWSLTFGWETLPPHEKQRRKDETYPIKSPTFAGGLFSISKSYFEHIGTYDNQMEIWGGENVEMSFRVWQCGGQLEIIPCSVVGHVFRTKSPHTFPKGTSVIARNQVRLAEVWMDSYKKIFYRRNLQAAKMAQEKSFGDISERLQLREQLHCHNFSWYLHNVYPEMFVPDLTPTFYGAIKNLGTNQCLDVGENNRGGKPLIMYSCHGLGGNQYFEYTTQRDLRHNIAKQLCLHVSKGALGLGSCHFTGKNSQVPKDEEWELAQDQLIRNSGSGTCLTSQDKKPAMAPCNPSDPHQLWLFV
UniProt P02774: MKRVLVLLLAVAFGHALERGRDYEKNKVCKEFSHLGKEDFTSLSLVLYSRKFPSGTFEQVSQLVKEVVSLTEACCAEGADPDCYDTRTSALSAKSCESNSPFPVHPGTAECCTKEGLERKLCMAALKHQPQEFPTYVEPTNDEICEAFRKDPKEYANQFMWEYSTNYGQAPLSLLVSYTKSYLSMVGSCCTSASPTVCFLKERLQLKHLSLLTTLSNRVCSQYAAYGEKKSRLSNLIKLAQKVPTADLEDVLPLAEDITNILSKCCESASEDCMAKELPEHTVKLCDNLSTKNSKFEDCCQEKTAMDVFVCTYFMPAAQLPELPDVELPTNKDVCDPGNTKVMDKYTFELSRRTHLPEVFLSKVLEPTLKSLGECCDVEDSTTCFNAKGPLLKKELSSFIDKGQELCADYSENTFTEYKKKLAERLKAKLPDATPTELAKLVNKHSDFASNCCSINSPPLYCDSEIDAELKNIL
UniProt P15407: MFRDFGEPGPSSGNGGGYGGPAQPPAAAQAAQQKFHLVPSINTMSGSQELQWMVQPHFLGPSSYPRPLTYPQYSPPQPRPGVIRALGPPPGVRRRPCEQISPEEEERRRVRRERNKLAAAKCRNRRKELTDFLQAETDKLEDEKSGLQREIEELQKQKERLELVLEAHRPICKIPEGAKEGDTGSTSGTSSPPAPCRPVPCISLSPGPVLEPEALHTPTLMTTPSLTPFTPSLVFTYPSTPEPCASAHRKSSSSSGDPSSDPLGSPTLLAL
UniProt P23769: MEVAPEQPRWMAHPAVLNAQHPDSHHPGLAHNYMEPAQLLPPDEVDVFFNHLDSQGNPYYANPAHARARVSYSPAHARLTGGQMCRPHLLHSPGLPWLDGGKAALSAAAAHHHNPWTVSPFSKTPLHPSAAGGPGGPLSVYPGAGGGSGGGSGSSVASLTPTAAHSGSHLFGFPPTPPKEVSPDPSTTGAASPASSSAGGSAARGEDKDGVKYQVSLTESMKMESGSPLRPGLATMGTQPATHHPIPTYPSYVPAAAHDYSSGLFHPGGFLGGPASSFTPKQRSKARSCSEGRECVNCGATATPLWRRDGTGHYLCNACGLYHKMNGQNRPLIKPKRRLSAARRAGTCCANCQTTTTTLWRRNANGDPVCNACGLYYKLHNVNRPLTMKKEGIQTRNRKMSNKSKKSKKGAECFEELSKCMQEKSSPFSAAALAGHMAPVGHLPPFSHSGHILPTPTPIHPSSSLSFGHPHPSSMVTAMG

[2] = compound: CC1=C(C=C(C=C1)NC(=O)C2=CC(=CC=C2)N(C)C)NC(=O)C3=CC=C(C=C3)O
In short: as §1

[3] = compound: CC1=CC=C(C=C1)SC2=C3C=C(SC3=CN=C2)C(=O)N
In short: as §1

[4] = compound: CC1=NC(=CC=C1)C2=C(N=C(N2)C(C)(C)C)C3=CC4=NC=CN=C4C=C3
In short: as §1

[5] = compound: CCCCN(Cc1ccc(C(=O)NO)cc1)C(=O)Nc1ccccc1 [Nexturastat A]
In short: as §1

[6] = compound: CCCS(=O)(=O)Nc1ccc(F)c(C(=O)c2c[nH]c3ncc(-c4ccc(Cl)cc4)cc23)c1F [vemurafenib]
In short: as §1

[7] = compound: CCCS(=O)(=O)Nc1ccc(F)c(C(=O)c2c[nH]c3ncc(Cl)cc23)c1F
In short: as §1

[8] = compound: CCCc1cc(C)[nH]c(=O)c1CNC(=O)c1cc(-c2ccnc(N3CCN(C)CC3)c2)cc2c1cnn2C(C)C
In short: as §1

[9] = compound: CCN(CC)Cc1ccc2cc(COC(=O)Nc3ccc(C(=O)NO)cc3)ccc2c1 [givinostat]
In short: as §1

[10] = compound: CCN(CCCOc1ccc2c(Nc3cc(CC(=O)Nc4cccc(F)c4)[nH]n3)ncnc2c1)CCOP(=O)(O)O [barasertib]
In short: as §1

Measured: log2 fold change

FUBP1 isoform 2 (UniProt Q96AE4)
inactive: [1] -0.022 | [2] 0.005 | [3] -0.001 | [4] 0.017 | [5] -0.086 | [6] -0.021 | [7] -0.043 | [8] -0.021 | [9] -0.02 | [10] -0.006

GCLC (UniProt P48506)
inactive: [1] 0.023 | [2] -0.053 | [3] 0.014 | [4] 0.01 | [5] -0.053 | [6] 0.032 | [7] -0.005 | [8] -0.015 | [9] 0.03 | [10] 0.028

GALNT2 (UniProt Q10471)
inactive: [1] -0.003 | [2] -0.035 | [3] 0.016 | [4] 0.038 | [5] -0.032 | [6] 0 | [7] 0.04 | [8] 0.03 | [9] -0.005 | [10] 0.011

FUT11 (UniProt Q495W5)
inactive: [1] 0.077 | [2] -0.101 | [3] -0.083 | [4] 0.005 | [5] -0.122 | [6] -0.055 | [7] -0.281 | [8] 0.067 | [9] 0.103 | [10] -0.013

GDAP1 (UniProt Q8TB36)
inactive: [1] -0.007 | [2] -0.082 | [3] 0.001 | [4] -0.009 | [5] 0.024 | [6] -0.014 | [7] -0.037 | [8] 0.017 | [9] -0.05 | [10] 0.014

FTSJ1 (UniProt Q9UET6)
inactive: [1] -0.007 | [2] -0.042 | [3] -0.025 | [4] 0.011 | [5] -0.012 | [6] 0.02 | [7] 0.052 | [8] -0.051 | [9] -0.011 | [10] 0.012

G3BP1 (UniProt Q13283)
inactive: [1] 0.047 | [2] 0.053 | [3] -0.075 | [4] -0.004 | [5] 0.218 | [6] 0.006 | [7] 0.021 | [8] 0.03 | [9] -0.018 | [10] -0.118

FUNDC2 (UniProt Q9BWH2)
inactive: [1] -0.023 | [2] 0.031 | [3] -0.056 | [4] -0.013 | [5] -0.067 | [6] -0.014 | [7] -0.131 | [8] -0.072 | [9] 0.01 | [10] 0.004

GGCT (UniProt O75223)
inactive: [1] 0.02 | [2] 0 | [3] -0.022 | [4] 0.015 | [5] -0.063 | [6] -0.008 | [7] 0.013 | [8] -0.013 | [9] -0.036 | [10] 0.011

GANAB isoform 2 (UniProt Q14697)
inactive: [1] 0.027 | [2] -0.031 | [3] -0.034 | [4] -0.015 | [5] 0.03 | [6] 0.007 | [7] -0.002 | [8] 0.056 | [9] 0.01 | [10] -0.023

GFM1 (UniProt Q96RP9)
inactive: [1] 0.043 | [2] -0.084 | [3] 0.037 | [4] 0.045 | [5] -0.069 | [6] 0.05 | [7] 0.062 | [8] 0.027 | [9] 0.044 | [10] 0.062

GALNT4 (UniProt Q8N4A0)
inactive: [1] 0.008 | [2] 0.017 | [3] -0.029 | [4] 0.013 | [5] -0.049 | [6] -0.037 | [7] -0.001 | [8] -0.01 | [9] 0.005 | [10] 0.011

GBE1 (UniProt Q04446)
inactive: [2] 0.08 | [3] 0.128 | [4] 0.014 | [5] 0 | [6] 0.162 | [7] 0.065 | [8] 0.005 | [9] 0.038 | [10] 0.109

FTSJ1 isoform 2 (UniProt Q9UET6)
inactive: [1] -0.083 | [9] 0.041

GBA (UniProt P04062)
inactive: [1] 0 | [2] 0.006 | [3] -0.041 | [4] 0.027 | [5] 0.061 | [6] -0.033 | [7] -0.065 | [8] 0.045 | [9] 0 | [10] 0.015

GDAP2 (UniProt Q9NXN4)
inactive: [1] 0.072 | [4] -0.091 | [5] 0.163 | [8] 0.225 | [9] 0.238

FOPNL (UniProt Q96NB1)
inactive: [1] -0.154 | [3] -0.002 | [4] 0.066 | [5] 0.381 | [6] -0.012 | [7] -0.054 | [8] -0.248 | [9] 0.072 | [10] 0.031

GAA (UniProt P10253)
inactive: [1] 0.03 | [4] 0.168 | [5] 0.03 | [6] 0.071 | [8] 0.214 | [9] -0.019

GCFC2 (UniProt P16383)
inactive: [1] -0.105 | [2] 0.063 | [3] -0.007 | [5] 0.029 | [6] 0.041 | [7] 0.052 | [8] 0.036 | [9] -0.026 | [10] -0.035

2 consecutive entries from above, for reference:
GAA (UniProt P10253)
inactive: [1] 0.03 | [4] 0.168 | [5] 0.03 | [6] 0.071 | [8] 0.214 | [9] -0.019

GCFC2 (UniProt P16383)
inactive: [1] -0.105 | [2] 0.063 | [3] -0.007 | [5] 0.029 | [6] 0.041 | [7] 0.052 | [8] 0.036 | [9] -0.026 | [10] -0.035

Next part

FRY (UniProt Q5TBA9)
inactive: [1] 0.026 | [5] -0.202 | [6] 0.075 | [8] 0.127 | [9] 0.145 | [10] 0.002

GALNT12 (UniProt Q8IXK2)
inactive: [1] 0.019 | [2] -0.039 | [3] -0.028 | [4] -0.051 | [5] 0.081 | [6] 0.007 | [7] 0.009 | [8] -0.07 | [9] -0.01 | [10] -0.041

FRYL (UniProt O94915)
inactive: [1] 0.037 | [2] -0.042 | [3] -0.039 | [4] -0.002 | [5] 0.021 | [6] -0.03 | [7] -0.002 | [8] 0.017 | [9] -0.004 | [10] 0.004

FTSJ3 (UniProt Q8IY81)
inactive: [1] -0.036 | [2] -0.02 | [3] 0.059 | [7] -0.201 | [9] 0.051

GALNT6 (UniProt Q8NCL4)
inactive: [1] -0.044 | [2] -0.117 | [3] -0.001 | [4] -0.186 | [5] 0.103 | [7] -0.062 | [8] -0.046 | [9] -0.277 | [10] 0.038

GC isoform 3 (UniProt P02774)
inactive: [1] -0.003 | [2] 0.459 | [3] 0.682 | [4] -0.305 | [5] 0.035 | [6] 0.215 | [7] 0.018 | [9] -0.129 | [10] -0.103

FRA10AC1 isoform 3 (UniProt Q70Z53)
inactive: [1] -0.068 | [3] 0.04 | [4] 0.041 | [5] -0.096 | [6] 0.104 | [7] 0.001 | [8] -0.001 | [9] 0.052 | [10] -0.002

FOSL1 (UniProt P15407)
inactive: [1] -0.036 | [3] -0.075 | [4] -0.068 | [5] 0.037 | [6] -0.161 | [7] -0.071 | [8] 0.012 | [9] -0.006 | [10] -0.051

GABPB1 (UniProt Q06547)
inactive: [1] 0.036 | [2] 0.019 | [3] 0.002 | [4] -0.06 | [6] 0.24 | [7] 0.012 | [9] 0.117 | [10] 0.118

GEMIN2 (UniProt O14893)
inactive: [1] -0.073 | [2] 0.033 | [3] 0 | [4] -0.002 | [5] 0.243 | [6] -0.028 | [7] -0.023 | [8] 0.029 | [10] 0.078

FXYD5 (UniProt Q96DB9)
inactive: [1] -0.084 | [2] -0.083 | [3] 0.187 | [4] 0.194 | [6] 0.092 | [7] -0.049

GATA2 (UniProt P23769)
inactive: [1] -0.187 | [2] 0.039 | [3] 0.02 | [6] 0.015 | [7] 0.002 | [8] 0.003 | [9] -0.087 | [10] -0.01

GBA2 (UniProt Q9HCG7)
inactive: [1] -0.079 | [3] -0.043 | [4] 0 | [5] 0.051 | [6] 0 | [7] -0.032 | [8] -0.076 | [9] -0.02 | [10] 0.008

Reference: the supplement of paper PMC10849652
